The shares of active, inactive and inconclusive entries below differ from those in the screen. Where a call stands in place of a potency, no number is given. For some assays here: Where the call is inconclusive, the potency comes from a doubtful curve fit. Active and inactive are the calls of the source. Unless noted, calls follow the shape of the dose curve; as a rule, active = well fitted curve in the direction sought with a large enough effect; inconclusive = small, poorly fitted or top-dose-only effect, or another doubt; inactive = no such curve, though single readings can be large; an effect the other way counts as inactive or inconclusive.
What was measured:
[1] = Cellular Toxicity (caspase-3) SHSY5Y (AID 657); settings: SH-SY5Y caspase-3 activation, DMSO zero, 10 µM staurosporine = 100%; at 91.7 µM (top of the series)
How it was run: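 Cells plated and incubated 5 h at 37 °C, dosed over a concentration range, incubated 16 h, then given Caspase-Glo 3/7 reagent for 1 h at room temperature before luminescence reading. Staurosporine (10 uM) defined full stimulation.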

Chains of the proteins cited; added tags and fusions are not shown. Lines headed by an entry give the natural chain unless they say otherwise; changes in a name come on top.
UniProt P01375, whole entry, looked up: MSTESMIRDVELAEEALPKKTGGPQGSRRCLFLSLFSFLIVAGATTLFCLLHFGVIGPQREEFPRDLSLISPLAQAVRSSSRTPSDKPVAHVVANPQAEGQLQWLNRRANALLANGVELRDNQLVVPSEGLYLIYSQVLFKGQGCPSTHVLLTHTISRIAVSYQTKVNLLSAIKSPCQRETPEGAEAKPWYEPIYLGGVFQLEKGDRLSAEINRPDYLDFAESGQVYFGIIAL
UniProt P51449: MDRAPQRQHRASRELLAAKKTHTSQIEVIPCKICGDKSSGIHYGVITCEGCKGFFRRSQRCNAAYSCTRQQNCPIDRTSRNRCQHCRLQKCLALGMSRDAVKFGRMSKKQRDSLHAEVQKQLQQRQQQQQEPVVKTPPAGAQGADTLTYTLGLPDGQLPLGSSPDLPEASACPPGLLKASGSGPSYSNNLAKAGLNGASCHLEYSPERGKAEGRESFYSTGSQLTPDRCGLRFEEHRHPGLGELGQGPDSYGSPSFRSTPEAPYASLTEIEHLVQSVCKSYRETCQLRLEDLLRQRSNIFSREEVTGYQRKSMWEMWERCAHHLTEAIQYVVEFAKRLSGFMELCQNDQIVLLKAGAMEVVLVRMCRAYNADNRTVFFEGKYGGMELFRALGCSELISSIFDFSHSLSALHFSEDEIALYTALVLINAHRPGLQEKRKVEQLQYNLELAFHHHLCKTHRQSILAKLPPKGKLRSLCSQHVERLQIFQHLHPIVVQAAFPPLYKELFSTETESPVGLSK
UniProt Q9UNA4: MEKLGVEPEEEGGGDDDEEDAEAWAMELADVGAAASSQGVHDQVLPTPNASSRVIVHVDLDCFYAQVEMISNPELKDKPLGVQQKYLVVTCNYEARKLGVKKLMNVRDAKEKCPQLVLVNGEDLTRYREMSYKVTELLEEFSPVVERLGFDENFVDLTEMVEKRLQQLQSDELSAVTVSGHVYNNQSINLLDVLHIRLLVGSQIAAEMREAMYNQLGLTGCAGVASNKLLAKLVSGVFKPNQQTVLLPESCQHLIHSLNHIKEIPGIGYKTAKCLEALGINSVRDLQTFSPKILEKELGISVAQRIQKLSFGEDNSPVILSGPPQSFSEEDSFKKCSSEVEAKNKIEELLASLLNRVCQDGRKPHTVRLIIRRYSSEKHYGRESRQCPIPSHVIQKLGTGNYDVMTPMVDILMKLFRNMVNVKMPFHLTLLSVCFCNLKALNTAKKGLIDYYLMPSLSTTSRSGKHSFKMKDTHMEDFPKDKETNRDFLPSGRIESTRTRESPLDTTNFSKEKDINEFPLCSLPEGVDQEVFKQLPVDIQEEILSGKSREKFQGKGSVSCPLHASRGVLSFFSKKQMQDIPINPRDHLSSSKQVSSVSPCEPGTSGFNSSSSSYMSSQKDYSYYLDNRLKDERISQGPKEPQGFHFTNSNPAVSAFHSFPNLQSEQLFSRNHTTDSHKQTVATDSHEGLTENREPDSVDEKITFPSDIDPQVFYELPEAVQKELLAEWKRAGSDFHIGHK
UniProt P39748, whole entry, looked up: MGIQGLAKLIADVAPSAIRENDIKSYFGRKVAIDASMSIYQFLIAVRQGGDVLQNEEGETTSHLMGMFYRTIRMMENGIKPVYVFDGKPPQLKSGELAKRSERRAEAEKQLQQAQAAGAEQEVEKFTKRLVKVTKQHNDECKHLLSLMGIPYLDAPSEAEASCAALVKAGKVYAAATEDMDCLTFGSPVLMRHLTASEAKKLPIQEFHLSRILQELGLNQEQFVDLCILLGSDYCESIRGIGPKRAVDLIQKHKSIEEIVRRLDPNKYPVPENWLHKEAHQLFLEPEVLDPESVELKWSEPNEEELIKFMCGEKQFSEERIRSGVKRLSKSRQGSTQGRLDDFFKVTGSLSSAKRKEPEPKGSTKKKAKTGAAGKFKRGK
UniProt Q14191, whole entry, looked up: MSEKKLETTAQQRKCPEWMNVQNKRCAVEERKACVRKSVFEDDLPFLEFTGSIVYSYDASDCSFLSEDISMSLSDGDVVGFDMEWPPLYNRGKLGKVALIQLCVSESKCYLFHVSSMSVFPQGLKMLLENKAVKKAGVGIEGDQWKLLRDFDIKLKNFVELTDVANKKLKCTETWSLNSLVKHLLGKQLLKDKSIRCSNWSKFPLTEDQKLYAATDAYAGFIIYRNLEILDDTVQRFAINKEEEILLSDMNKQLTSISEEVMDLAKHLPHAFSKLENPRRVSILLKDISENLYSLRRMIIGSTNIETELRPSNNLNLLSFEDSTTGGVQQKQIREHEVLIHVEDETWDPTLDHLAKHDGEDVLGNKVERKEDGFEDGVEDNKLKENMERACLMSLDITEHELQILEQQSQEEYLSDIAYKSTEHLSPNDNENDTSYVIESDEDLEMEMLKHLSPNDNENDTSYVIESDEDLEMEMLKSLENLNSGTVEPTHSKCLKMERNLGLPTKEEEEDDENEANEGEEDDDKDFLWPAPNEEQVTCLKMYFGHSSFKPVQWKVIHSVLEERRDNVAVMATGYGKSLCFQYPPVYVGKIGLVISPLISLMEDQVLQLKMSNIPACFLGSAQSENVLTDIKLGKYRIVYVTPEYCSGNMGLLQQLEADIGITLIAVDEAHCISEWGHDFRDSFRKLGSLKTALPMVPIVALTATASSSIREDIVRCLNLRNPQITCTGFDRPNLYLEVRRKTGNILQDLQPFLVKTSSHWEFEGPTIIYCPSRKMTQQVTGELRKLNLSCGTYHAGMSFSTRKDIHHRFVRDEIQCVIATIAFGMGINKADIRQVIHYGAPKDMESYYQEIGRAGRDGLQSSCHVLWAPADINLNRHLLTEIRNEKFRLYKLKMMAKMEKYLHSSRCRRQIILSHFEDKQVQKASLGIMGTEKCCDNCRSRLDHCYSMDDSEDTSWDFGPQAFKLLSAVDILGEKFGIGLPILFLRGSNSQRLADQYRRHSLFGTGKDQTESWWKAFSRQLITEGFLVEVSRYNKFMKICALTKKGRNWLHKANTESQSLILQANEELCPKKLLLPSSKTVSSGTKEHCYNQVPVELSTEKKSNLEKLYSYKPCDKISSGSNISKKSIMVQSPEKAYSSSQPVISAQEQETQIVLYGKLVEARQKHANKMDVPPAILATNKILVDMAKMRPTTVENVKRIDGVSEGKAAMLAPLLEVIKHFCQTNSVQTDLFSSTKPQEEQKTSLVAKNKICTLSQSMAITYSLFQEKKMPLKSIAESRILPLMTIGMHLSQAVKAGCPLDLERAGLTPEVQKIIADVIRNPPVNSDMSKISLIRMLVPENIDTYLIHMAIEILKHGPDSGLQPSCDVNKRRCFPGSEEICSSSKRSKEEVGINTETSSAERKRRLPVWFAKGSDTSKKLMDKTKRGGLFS
UniProt P54132: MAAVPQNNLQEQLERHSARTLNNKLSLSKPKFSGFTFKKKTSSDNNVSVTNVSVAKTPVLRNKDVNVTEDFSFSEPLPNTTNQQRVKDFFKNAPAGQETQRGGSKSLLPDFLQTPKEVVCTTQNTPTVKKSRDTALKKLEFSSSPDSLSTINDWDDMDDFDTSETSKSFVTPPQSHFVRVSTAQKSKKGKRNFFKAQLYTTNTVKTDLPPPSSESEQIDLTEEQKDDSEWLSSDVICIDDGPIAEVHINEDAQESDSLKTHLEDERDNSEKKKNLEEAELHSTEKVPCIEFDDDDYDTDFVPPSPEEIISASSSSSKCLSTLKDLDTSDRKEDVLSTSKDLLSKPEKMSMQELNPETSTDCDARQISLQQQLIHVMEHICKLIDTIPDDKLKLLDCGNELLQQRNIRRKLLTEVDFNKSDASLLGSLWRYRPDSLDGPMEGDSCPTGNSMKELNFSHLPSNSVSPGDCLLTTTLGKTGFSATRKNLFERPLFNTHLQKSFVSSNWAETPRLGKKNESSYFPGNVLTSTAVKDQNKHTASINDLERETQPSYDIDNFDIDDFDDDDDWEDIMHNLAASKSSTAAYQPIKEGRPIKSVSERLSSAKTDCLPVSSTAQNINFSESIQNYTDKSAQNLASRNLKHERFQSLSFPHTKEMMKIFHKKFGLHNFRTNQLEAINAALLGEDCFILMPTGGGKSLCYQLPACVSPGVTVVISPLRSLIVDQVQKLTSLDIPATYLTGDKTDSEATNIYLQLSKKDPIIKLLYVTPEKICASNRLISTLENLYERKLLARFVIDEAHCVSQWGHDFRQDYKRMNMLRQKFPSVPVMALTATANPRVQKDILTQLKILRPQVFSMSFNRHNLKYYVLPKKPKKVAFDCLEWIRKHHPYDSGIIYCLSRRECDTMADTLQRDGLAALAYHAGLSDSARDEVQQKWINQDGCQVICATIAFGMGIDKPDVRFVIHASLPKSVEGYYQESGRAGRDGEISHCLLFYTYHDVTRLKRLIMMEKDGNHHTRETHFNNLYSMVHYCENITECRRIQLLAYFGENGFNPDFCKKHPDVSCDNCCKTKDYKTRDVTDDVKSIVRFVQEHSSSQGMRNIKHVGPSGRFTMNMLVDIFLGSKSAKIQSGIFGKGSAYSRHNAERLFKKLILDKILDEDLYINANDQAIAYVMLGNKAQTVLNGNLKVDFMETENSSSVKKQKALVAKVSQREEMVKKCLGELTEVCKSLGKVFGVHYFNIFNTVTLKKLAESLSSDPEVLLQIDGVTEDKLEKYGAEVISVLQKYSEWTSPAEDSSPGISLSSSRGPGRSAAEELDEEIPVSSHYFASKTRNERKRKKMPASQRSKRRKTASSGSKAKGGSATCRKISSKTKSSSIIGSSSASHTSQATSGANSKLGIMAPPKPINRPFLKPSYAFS

[2] = Cellular Toxicity (caspase-3) Mesangial (AID 660); settings: mesangial cells, normalized: DMSO 0%, 100 µM tamoxifen 100%; at 91.7 µM (top of the series)
How it was run: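 Human renal glomerular mesangial cells, 1000/well, 5 h at 37 C before 16 h compound treatment. Caspase-Glo 3/7 luminescence after 20 min; normalized to DMSO and 100 uM tamoxifen, AC50 from Hill fit.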

[3] = Cell Viability - LYMP2-004 (AID 966); settings: LYMP2-004 lymphoblastoid cell viability, qHTS; activity change, negative = cytotoxicity: at 92.2 µM (top of the series); also: nearly all actives have a fitted effect of over 65% in size
How it was run: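 Lymphoblastoid LYMP2-004 cells, 2500 per well, were preincubated for 5 hr and then treated with compound for 24 h at 37 C in complete medium. Viability was read as cellular ATP by CellTiter-Glo luminescence, and AC50 values were taken from Hill fits to concentration-response data.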

[4] = Cell Viability - LYMP2-026 (AID 989); also: nearly all actives have a fitted effect of over 50% in size
How it was run: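 Human lymphoblastoid LYMP2-026 cells, 2500/well, exposed to compound 24 h at 37 C in complete medium. Viability as intracellular ATP by CellTiter-Glo luminescence; AC50 from Hill fits of qHTS concentration-response.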

[5] = Cellular Toxicity (caspase-3) H-4-II-E (AID 663); settings: H-4-II-E rat hepatoma, scaled: DMSO 0%, 100 µM tamoxifen 100%; at 92.2 µM (top of the series);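 also: cells exposed to compound for 16 hr before readout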
How it was run: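 Rat hepatoma H-4-II-E cells (1500/well) plated 5 hr, then exposed to compound titrations for 16 hr at 37 °C. Caspase-Glo 3/7 luminescence read after 20 min at RT; data normalized to DMSO and 100 uM tamoxifen, AC50 from Hill fits.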

[6] = Cell Viability - LYMP2-001 (AID 921); settings: LYMP2-001 lymphoblastoid cell viability; activity change, negative = cytotoxic: at 92.2 µM (top of the series); also: nearly all actives have a fitted effect of over 70% in size
How it was run: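 qHTS, 1536-well; lymphoblastoid cells, 24 hr compound, 37 C; ATP by CellTiter-Glo, 30 min RT; luminescence; Hill-fit AC50.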

[7] = Cell Viability - LYMP2-005 (AID 967)
How it was run: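 qHTS viability screen in LYMP2-005 cells: 24 h at 37 C with compound, ATP luminescence via CellTiter-Glo, AC50 from Hill curves.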

[8] = target: Tumor necrosis factor (Homo sapiens) (UniProt P01375); assay: qHTS assay to identify small molecules that stimulate Tumor Necrosis Factor-alpha (TNF-alpha) secretion (AID 651757; active = well fitted curve in the direction sought with a large enough effect in the signal ratio; inconclusive = small, poorly fitted or top-dose-only effect, or a change in a side signal; inactive = no such curve, though single readings can be large or run the other way; the % refers to the signal ratio); settings: Human cells, HTRF 665/615 ratio; activation (TNF-alpha secretion): at 92.2 µM (top of the series)
How it was run: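 THP-1 cells (3000/well) exposed to compounds 17 hrs at 37 C. Secreted TNF-alpha detected by HTRF with cryptate- and XL665-labeled anti-TNF-alpha antibodies after 3 hr at room temperature.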

[9] = MultiTox-Fluor Cytotoxicity Assay - LYMP1-001 - Live Cells (AID 947); also: potency is read from the fitted curve at half-maximal effect
[10] = Cell Viability - LYMP2-009 (AID 968); settings: LYMP2-009 lymphoblastoid cell viability; activity change, negative = viability loss: at 92.2 µM (top of the series); also: nearly all actives have a fitted effect of over 55% in size
[11] = Cell Viability - LYMP2-020 (AID 986); settings: activity change, negative = viability loss: at 92.2 µM (top of the series); also: nearly all actives have a fitted effect of over 55% in size
How it was run: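 Human lymphoblastoid LYMP2-020 cells (2500/well) preincubated 5 h at 37 C, then treated 24 h at 37 C. Viability measured as intracellular ATP by CellTiter-Glo luminescence after 30 min at room temperature; AC50 from Hill fits.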

[12] = qHTS assay for small molecule agonists of the antioxidant response element (ARE) signaling pathway measured by Nrf2-dependant transcriptional activity - cell viability counter screen (AID 720653; active = well fitted curve in the direction sought with a large enough effect in the repeat runs; inconclusive = weak or mixed curves; inactive = no such curve, though single readings can be large; an effect the other way counts as inactive or inconclusive); settings: ARE-bla HepG2 viability, CellTiter-Glo ATP luminescence, 16 h; max response: active compounds read low
How it was run: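 ARE-bla HepG2 cells treated with compounds for 16 h at 37C; this counter screen measures viability as intracellular ATP by CellTiter-Glo luminescence after 30 min at room temperature.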

[13] = Cell Viability - LYMP2-011 (AID 969); also: nearly all actives have a fitted effect of over 60% in size
How it was run: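 2500 cells/well in complete medium, compound-treated 24 h at 37 C. Viability read as intracellular ATP by CellTiter-Glo luminescence after 30 min at room temperature. AC50 from Hill fits of qHTS concentration-response data.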

[14] = Cell Viability - LYMP2-015 (AID 971); also: nearly all actives have a fitted effect of over 55% in size
How it was run: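 LYMP2-015 human lymphoblastoid cells (2500/well) in complete medium, compound-treated 24 h at 37 C; viability read as cellular ATP by CellTiter-Glo luminescence after 30 min at room temperature. AC50 from Hill-equation fits of qHTS concentration-response data.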

[15] = Cell Viability - LYMP2-021 (AID 974);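 also: compound exposure lasts 24 hours at 37 °C; nearly all actives have a fitted effect of over 55% in size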
How it was run: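 Human lymphoblastoid LYMP2-021 cells, 2500/well in complete medium, treated 24 hours at 37 C. Intracellular ATP by CellTiter-Glo luminescence (30 min, RT); AC50 from Hill fits of concentration-response.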

[16] = qHTS assay for small molecule antagonists of the retinoid-related orphan receptor gamma (ROR-gamma) signaling pathway - cell viability counter screen (AID 720652; active = well fitted curve in the direction sought with a large enough effect in the repeat runs; inconclusive = weak or mixed curves; inactive = no such curve, though single readings can be large; an effect the other way counts as inactive or inconclusive;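 also: compound exposure lasted 16 hr before ATP read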)
How it was run: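 CHO cells carrying TET-inducible ROR and RORE-luciferase reporter, plated 5 hr, then dosed with compound plus doxycycline. After 16 hr at 37 C, viability read as intracellular ATP by CellTiter-Glo luminescence.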

[17] = Cell Proliferation Assay against the TMD8 Cell Line (Caspase readout at 16 hrs) (AID 651712); settings: TMD8 lymphoma cells, caspase activation luminescence; also: potency is read from the fitted curve at half-maximal effect
How it was run: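 TMD8 cells in RPMI with 5% FBS were treated with compound for 16 h at 37 C, then caspase 3/7 activation was read by Caspase-Glo luminescence. Percent activity was scaled to DMSO (0%) and 9.2 uM bortezomib final (100%).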

[18] = Cell Proliferation Assay against the TMD8 Cell Line (Caspase readout at 8 hrs) (AID 651713); settings: TMD8 lymphoma cells, caspase activation luminescence; also: potency is read from the fitted curve at half-maximal effect
How it was run: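 TMD8 cells in RPMI plus 5% FBS were treated with compound for 8 h at 37C. Caspase 3/7 activation was read by Caspase-Glo luminescence. Percent activity was scaled from DMSO (0%) to 9.2 uM bortezomib final (100%).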

[19] = qHTS Assay for Identifying Gametocytocidal Compounds (AID 743244); also: potency is read from the fitted curve at half-maximal effect; settings: P. falciparum 3D7 stage III-V gametocytes, alamarBlue, 72 h; max response: active compounds read low
How it was run: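 In this qHTS viability screen, late-stage 3D7 gametocytes are incubated with compound for 72 h, then with alamarBlue for 24 h; reduced resorufin fluorescence marks killing.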

[20] = qHTS assay for small molecule disruptors of the mitochondrial membrane potential - 5 hr assay (AID 651755; calls by dose curve; also: nearly all actives have a fitted effect of over 40% in size); settings: JC-1-type ratio dye; ratio change, negative = disruption: at 92.2 µM (top of the series)
How it was run: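 HepG2 cells (2,000/well), attached overnight, exposed to compound 5 hr at 37C, then Mito-MPS dye 30 min. Fluorescence read for monomers (490/535 nm) and aggregates (540/590 nm).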

[21] = target: Nuclear receptor ROR-gamma (Homo sapiens) (UniProt P51449); assay: qHTS assay for small molecule antagonists of the retinoid-related orphan receptor gamma (ROR-gamma) signaling pathway (AID 651802);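 also: luciferase reporter luminescence driven by ROR response element; nearly all actives have a fitted effect of over 60% in size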
How it was run: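 CHO cells with TET-inducible ROR-gamma and RORE-luciferase reporter, dosed then doxycycline-induced. After 16 h at 37C, One-Glo luminescence read; decreased signal indicates antagonism.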

[22] = target: DNA polymerase iota (Homo sapiens) (UniProt Q9UNA4); assay: qHTS for Inhibitors of Polymerase Iota: Confirmatory Assay for Cherry-picked Compounds (AID 720496); settings: Pol iota primer extension, TAMRA/BHQ fluorescence; also: potency is read from the fitted curve at half-maximal effect
How it was run: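 Recombinant human Pol iota (10 nM) was preincubated with compound for 15 min at room temperature, then 50 nM final primer/template substrate was added; the substrate carried a TAMRA-labeled reporter strand and a BHQ-2-quenched template. Fluorescence was read at 0 and 10 min.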

[23] = target: Flap endonuclease 1 (Homo sapiens) (UniProt P39748); assay: qHTS Assay for the Inhibitors of FEN1: Confirmatory Assay for Cherry-picked Compounds (AID 720498); settings: FEN1 flap cleavage, TAMRA/BHQ2 fluorogenic DNA substrate; also: potency is read from the fitted curve at half-maximal effect; nearly all actives have a fitted effect of over 60% in size
How it was run: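 FEN1 at 10 nM was preincubated with compound for 15 min at room temperature, then 50 nM (final) double-flap DNA substrate was added. TAMRA fluorescence released from the BHQ-2-quenched flap was read at 0 and 15 min (ex 525/em 598 nm).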

[24] = target: Bifunctional 3'-5' exonuclease/ATP-dependent helicase WRN (Homo sapiens) (UniProt Q14191); assay: qHTS for Inhibitors of WRN Helicase: Confirmatory Assay for Cherry-picked Compounds. (AID 720497); also: potency is read from the fitted curve at half-maximal effect; nearly all actives have a fitted effect of over 65% in size
How it was run: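 Helicase activity is tracked as a kinetic fluorescence signal (excitation 525 nm, emission 598 nm) after 100 nM forked duplex DNA and 2 mM ATP are added to 20 nM WRN that has been preincubated 15 min with compound at room temperature.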

[25] = target: RecQ-like DNA helicase BLM (Homo sapiens) (UniProt P54132); assay: qHTS for Inhibitors of WRN Helicase: BLM Helicase Counterscreen for WRN Inhibitors (AID 720503); settings: Recombinant BLM helicase DNA unwinding, red fluorescence; activity change, negative = inhibition: at 57.1 µM (top of the series); also: nearly all actives have a fitted effect of over 60% in size
How it was run: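 BLM (1 nM) was preincubated with compounds for 15 min at room temperature in Tris-HCl pH 8.0, 50 mM NaCl, 2 mM MgCl2 buffer. Unwinding started with 100 nM DNA and 2 mM ATP (final); red fluorescence was read twice, 15 min apart.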

SMILES: CC(=O)OCc1ccc2c(c1)OCO2
- caspase-3 activation [1]: inactive: -0.54%
- caspase-3 activation [2]: inactive: -0.657%
- Potency [3]: inactive
- Potency [4]: inactive

SMILES: C=C(C)C(=O)OC
- caspase-3 activation [5]: inactive: 1.27%
- Potency [6]: inactive
- Potency [7]: inactive
- Potency [8]: inactive

SMILES: O=C(O)c1cccc(Cl)c1Cl
- Potency [9]: inconclusive: 6.31 µM [cytotoxic, partial curve, poor fit]
- Potency [10]: inactive
- Potency [11]: inactive
- max response [12]: inactive: 3.31%

SMILES: COc1ccccc1[N+](=O)[O-]
- Potency [13]: inactive
- Potency [8]: inactive

SMILES: O=C(O)c1ccccc1C(=O)O
- Potency [14]: inactive
- Potency [15]: inactive
- Potency [16]: inactive

SMILES: C=C1C(=C/C=C2\CCC[C@]3(C)[C@@H]([C@H](C)/C=C/[C@H](C)C(C)C)CC[C@@H]23)C[C@@H](O)C[C@@H]1O
- Potency [17]: inconclusive: 33.2 µM [activator, single point]
- Potency [18]: inconclusive: 23.5 µM [activator, single point]
- Potency [19]: inconclusive: 35.5 µM [inhibitor, single point]

SMILES: CC(CCl)OC(C)CCl (stereo unspecified)
- Potency [20]: inactive

SMILES: Cc1ccc(C#N)cc1
- Potency [21]: inactive

SMILES: COc1cccc2c1C(=O)c1c(O)c3c(c(O)c1C2=O)C[C@](O)(C(C)=O)C[C@H]3O[C@@H]1C[C@@H](N)[C@@H](O)[C@@H](C)O1
- Potency [22]: active: 16.8 µM
- Potency [23]: active: 37.9 µM

SMILES: CCN(CC)CCCNc1ccc2ncn3c4ccc(O)cc4c(=O)c1c23
- Potency [24]: active: 21.5 µM
- Potency [25]: inactive

From PubChem BioAssay (NCATS)
